Source: the supplement of paper PMC8728848
Some of the results follow.

Legend:
Assay in all cases: glycan array binding signal (z-score within array); higher = stronger binding
Conditions in all cases: glycan notation: IUPAC condensed, linker removed
[1] = target: GlcNAc(a1-6)Gal(b1-4)GlcNAc
Method in brief: (§1)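 Columns mapping to the same glycan were averaged after glycan names were converted to IUPAC-condensed notation. The data come from 3228 arrays in the Consortium for Functional Glycomics database, limited to those with an available protein sequence. Binding is reported as a within-array Z-score averaged across arrays of one protein sequence and across linkers.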

[2] = target: GlcNAc(b1-2)Gal(b1-3)GalNAc
Method in brief: as §1

[3] = target: GlcNAc(b1-2)Man(a1-3)[GlcNAc(b1-2)Man(a1-6)]Man(b1-4)GlcNAc(b1-4)GlcNAc
Method in brief: as §1

[4] = target: GlcNAc(b1-2)Man(a1-3)[GlcNAc(b1-2)Man(a1-6)]Man(b1-4)GlcNAc(b1-4)[Fuc(a1-6)]GlcNAc
Method in brief: as §1

[5] = target: GlcNAc(b1-2)Man(a1-3)[GlcNAc(b1-4)][GlcNAc(b1-2)Man(a1-6)]Man(b1-4)GlcNAc(b1-4)GlcNAc
Method in brief: as §1

[6] = target: GlcNAc(b1-2)Man(a1-3)[GlcNAc(b1-4)][GlcNAc(b1-2)Man(a1-6)]Man(b1-4)GlcNAc(b1-4)[Fuc(a1-6)]GlcNAc
Method in brief: as §1

[7] = target: GlcNAc(b1-2)[GlcNAc(b1-4)]Man(a1-3)[GlcNAc(b1-2)Man(a1-6)]Man(b1-4)GlcNAc(b1-4)GlcNAc
Method in brief: as §1

[8] = target: GlcNAc(b1-2)[GlcNAc(b1-4)]Man(a1-3)[GlcNAc(b1-4)][GlcNAc(b1-2)Man(a1-6)]Man(b1-4)GlcNAc(b1-4)GlcNAc
Method in brief: as §1

[9] = target: GlcNAc(b1-2)[GlcNAc(b1-4)]Man(a1-3)[GlcNAc(b1-4)][GlcNAc(b1-2)[GlcNAc(b1-6)]Man(a1-6)]Man(b1-4)GlcNAc(b1-4)GlcNAc
Method in brief: as §1

[10] = target: GlcNAc(b1-2)[GlcNAc(b1-4)]Man(a1-3)[GlcNAc(b1-4)][GlcNAc(b1-2)[GlcNAc(b1-6)]Man(a1-6)]Man(b1-4)GlcNAc(b1-4)[Fuc(a1-6)]GlcNAc
Method in brief: as §1

[11] = target: GlcNAc(b1-2)[GlcNAc(b1-6)]Man(a1-6)[GlcNAc(b1-2)Man(a1-3)]Man(b1-4)GlcNAc(b1-4)GlcNAc
Method in brief: as §1

[12] = target: GlcNAc(b1-2)[GlcNAc(b1-6)]Man(a1-6)[GlcNAc(b1-2)Man(a1-3)]Man(b1-4)GlcNAc(b1-4)[Fuc(a1-6)]GlcNAc
Method in brief: as §1

[13] = target: GlcNAc(b1-2)[GlcNAc(b1-6)]Man(a1-6)[GlcNAc(b1-4)][GlcNAc(b1-2)Man(a1-3)]Man(b1-4)GlcNAc(b1-4)GlcNAc
Method in brief: as §1

GlcNAc(b1-3)Fuc = target: GlcNAc(b1-3)Fuc
Method in brief: as §1

GlcNAc(b1-3)Gal = target: GlcNAc(b1-3)Gal
Method in brief: as §1

[14] = target: GlcNAc(b1-3)Gal(b1-3)GalNAc
Method in brief: as §1

GlcNAc(b1-3)Gal(b1-4)Glc = target: GlcNAc(b1-3)Gal(b1-4)Glc
Method in brief: as §1

[15] = target: GlcNAc(b1-3)Gal(b1-4)GlcNAc
Method in brief: as §1

[16] = target: GlcNAc(b1-3)Gal(b1-4)GlcNAc(b1-2)Man(a1-3)[GlcNAc(b1-3)Gal(b1-4)GlcNAc(b1-2)Man(a1-6)]Man(b1-4)GlcNAc(b1-4)GlcNAc
Method in brief: as §1

[17] = target: GlcNAc(b1-3)Gal(b1-4)GlcNAc(b1-2)Man(a1-3)[GlcNAc(b1-3)Gal(b1-4)GlcNAc(b1-2)Man(a1-6)]Man(b1-4)GlcNAc(b1-4)[Fuc(a1-6)]GlcNAc
Method in brief: as §1

[18] = target: GlcNAc(b1-3)Gal(b1-4)GlcNAc(b1-2)[GlcNAc(b1-3)Gal(b1-4)GlcNAc(b1-6)]Man(a1-6)[GlcNAc(b1-3)Gal(b1-4)GlcNAc(b1-2)Man(a1-3)]Man(b1-4)GlcNAc(b1-4)GlcNAc
Method in brief: as §1

[19] = target: GlcNAc(b1-3)Gal(b1-4)GlcNAc(b1-3)Gal(b1-4)GlcNAc
Method in brief: as §1

[20] = target: GlcNAc(b1-3)Gal(b1-4)GlcNAc(b1-3)Gal(b1-4)GlcNAc(b1-2)Man(a1-3)[GlcNAc(b1-3)Gal(b1-4)GlcNAc(b1-3)Gal(b1-4)GlcNAc(b1-2)Man(a1-6)]Man(b1-4)GlcNAc(b1-4)GlcNAc
Method in brief: as §1

[21] = target: GlcNAc(b1-3)Gal(b1-4)GlcNAc(b1-3)Gal(b1-4)GlcNAc(b1-2)Man(a1-3)[GlcNAc(b1-3)Gal(b1-4)GlcNAc(b1-3)Gal(b1-4)GlcNAc(b1-2)Man(a1-6)]Man(b1-4)GlcNAc(b1-4)[Fuc(a1-6)]GlcNAc
Method in brief: as §1

[22] = target: GlcNAc(b1-3)Gal(b1-4)GlcNAc(b1-3)Gal(b1-4)GlcNAc(b1-2)[GlcNAc(b1-3)Gal(b1-4)GlcNAc(b1-3)Gal(b1-4)GlcNAc(b1-6)]Man(a1-6)[GlcNAc(b1-3)Gal(b1-4)GlcNAc(b1-3)Gal(b1-4)GlcNAc(b1-2)Man(a1-3)]Man(b1-4)GlcNAc(b1-4)[Fuc(a1-6)]GlcNAc
Method in brief: as §1

[23] = target: GlcNAc(b1-3)Gal(b1-4)GlcNAc(b1-3)Gal(b1-4)GlcNAc(b1-3)Gal(b1-4)GlcNAc(b1-2)Man(a1-3)[GlcNAc(b1-3)Gal(b1-4)GlcNAc(b1-3)Gal(b1-4)GlcNAc(b1-3)Gal(b1-4)GlcNAc(b1-2)Man(a1-6)]Man(b1-4)GlcNAc(b1-4)GlcNAc
Method in brief: as §1

[24] = target: GlcNAc(b1-3)Gal(b1-4)GlcNAc(b1-3)Gal(b1-4)GlcNAc(b1-3)Gal(b1-4)GlcNAc(b1-2)Man(a1-3)[GlcNAc(b1-3)Gal(b1-4)GlcNAc(b1-3)Gal(b1-4)GlcNAc(b1-3)Gal(b1-4)GlcNAc(b1-2)Man(a1-6)]Man(b1-4)GlcNAc(b1-4)[Fuc(a1-6)]GlcNAc
Method in brief: as §1

[25] = target: GlcNAc(b1-3)Gal(b1-4)GlcNAc(b1-3)Gal(b1-4)GlcNAc(b1-3)Gal(b1-4)GlcNAc(b1-2)[GlcNAc(b1-3)Gal(b1-4)GlcNAc(b1-3)Gal(b1-4)GlcNAc(b1-3)Gal(b1-4)GlcNAc(b1-6)]Man(a1-6)[GlcNAc(b1-3)Gal(b1-4)GlcNAc(b1-3)Gal(b1-4)GlcNAc(b1-3)Gal(b1-4)GlcNAc(b1-2)Man(a1-3)]Man(b1-4)GlcNAc(b1-4)[Fuc(a1-6)]GlcNAc
Method in brief: as §1

[26] = target: GlcNAc(b1-3)Gal(b1-4)GlcNAc(b1-3)Gal(b1-4)GlcNAc(b1-3)Gal(b1-4)GlcNAc(b1-3)Gal(b1-4)GlcNAc(b1-2)Man(a1-3)[GlcNAc(b1-3)Gal(b1-4)GlcNAc(b1-3)Gal(b1-4)GlcNAc(b1-3)Gal(b1-4)GlcNAc(b1-3)Gal(b1-4)GlcNAc(b1-2)Man(a1-6)]Man(b1-4)GlcNAc(b1-4)GlcNAc
Method in brief: as §1

[27] = target: GlcNAc(b1-3)Gal(b1-4)GlcNAc(b1-3)Gal(b1-4)GlcNAc(b1-3)Gal(b1-4)GlcNAc(b1-3)Gal(b1-4)GlcNAc(b1-2)Man(a1-3)[GlcNAc(b1-3)Gal(b1-4)GlcNAc(b1-3)Gal(b1-4)GlcNAc(b1-3)Gal(b1-4)GlcNAc(b1-3)Gal(b1-4)GlcNAc(b1-2)Man(a1-6)]Man(b1-4)GlcNAc(b1-4)[Fuc(a1-6)]GlcNAc
Method in brief: as §1

B1: SHCBP1-GST (Homo sapiens), Q8NEM2 (protein)
chain: MADGSLTGGGLEAAAMAPERMGWAVEQELASLEKGLFQDEDSCSDCSYRDKPGSSLQSFMPEGKTFFPEIFQTNQLLFYERFRAYQDYILADCKASEVQEFTAEFLEKVLEPSGWRAVWHTNVFKVLVEITDVDFAALKAVVRLAEPYLCDSQVSTFTMECMKELLDLKEHRLPLQELWVVFDDSGVFDQTALAIEHVRFFYQNIWRSWDEEEEDEYDYFVRCVEPRLRLHYDILEDRVPSGLIVDYHNLLSQCEESYRKFLNLRSSLSNCNSDSEQENISMVEGLKLYSEMEQLKQKLKLIENPLLRYVFGYQKNSNIQAKGVRSSGQKITHVVSSTMMAGLLRSLLTDRLCQEPGEEEREIQFHSDPLSAINACFEGDTVIVCPGHYVVHGTFSIADSIELEGYGLPDDIVIEKRGKGDTFVDCTGADIKISGIKFVQHDAVEGILIVHRGKTTLENCVLQCETTGVTVRTSAEFLMKNSDLYGAKGAGIEIYPGSQCTLSDNGIHHCKEGILIKDFLDEHYDIPKISMVNNIIHNNEGYGVVLVKPTIFSDLQENAEDGTEENKALKIQTSGEPDVAERVDLEELIECATGKMELCARTDPSEQVEGNCEIVNELIAASTQKGQIKKKRLSELGITQADDNLMSQEMFVGIVGNQFKWNGKGSFGTFLF
**Q.** What does the source list for B1?
**A.** glycan array binding signal (z-score) [1]: 0.415; glycan array binding signal (z-score) [2]: -0.154; glycan array binding signal (z-score) [3]: -0.282; glycan array binding signal (z-score) [4]: -0.291; glycan array binding signal (z-score) [5]: -0.539; glycan array binding signal (z-score) [6]: -0.097; glycan array binding signal (z-score) [7]: -0.619; glycan array binding signal (z-score) [8]: -0.752; glycan array binding signal (z-score) [9]: -0.916; glycan array binding signal (z-score) [10]: -0.396; glycan array binding signal (z-score) [11]: -0.103; glycan array binding signal (z-score) [12]: 0.46; glycan array binding signal (z-score) [13]: -0.311; glycan array binding signal (z-score) (GlcNAc(b1-3)Fuc): -0.604; glycan array binding signal (z-score) (GlcNAc(b1-3)Gal): -0.754; glycan array binding signal (z-score) [14]: 0.01; glycan array binding signal (z-score) (GlcNAc(b1-3)Gal(b1-4)Glc): -0.064; glycan array binding signal (z-score) [15]: -0.099; glycan array binding signal (z-score) [16]: 0.201; glycan array binding signal (z-score) [17]: 0.952; glycan array binding signal (z-score) [18]: 1.45; glycan array binding signal (z-score) [19]: 0.222; glycan array binding signal (z-score) [20]: 1.4; glycan array binding signal (z-score) [21]: 1.04; glycan array binding signal (z-score) [22]: 0.736; glycan array binding signal (z-score) [23]: -0.078; glycan array binding signal (z-score) [24]: 0.644; glycan array binding signal (z-score) [25]: 0.754; glycan array binding signal (z-score) [26]: 0.73; glycan array binding signal (z-score) [27]: 0.436
